Sequences of proteins named here, by UniProt entry; tags and fusion partners are left off. Residues count along the entry.
UniProt P43220, 24-463 limits assumed: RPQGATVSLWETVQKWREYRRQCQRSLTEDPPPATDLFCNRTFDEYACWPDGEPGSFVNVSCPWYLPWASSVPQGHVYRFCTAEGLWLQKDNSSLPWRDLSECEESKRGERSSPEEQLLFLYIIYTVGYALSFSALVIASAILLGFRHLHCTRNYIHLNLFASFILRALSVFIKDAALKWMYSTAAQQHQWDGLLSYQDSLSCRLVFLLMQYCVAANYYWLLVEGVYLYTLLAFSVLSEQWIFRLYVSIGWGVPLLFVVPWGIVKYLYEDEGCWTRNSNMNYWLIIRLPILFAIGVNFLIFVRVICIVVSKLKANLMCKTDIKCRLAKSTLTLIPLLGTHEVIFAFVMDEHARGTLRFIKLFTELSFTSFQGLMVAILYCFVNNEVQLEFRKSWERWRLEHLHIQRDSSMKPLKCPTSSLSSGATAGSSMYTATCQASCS

According to patent publication US20250145596A1, “HETEROCYCLIC GLP-1 AGONISTS” (Gasherbrum Bio, Inc., priority 2022, published 2025):

Each compound was assayed against GLP-1 Receptor (Homo sapiens, UniProt P43220) (assay: GLP-1R agonist cAMP stimulation assay). Settings: read-out: Activity (EC50), GLP-1R agonist cAMP stimulation assay; HEK293/CRE-Luc cell line stably expressing the GLP-1 Receptor; 30 min at 37° C.; cAMP dynamic 2 Kit.
Description: Activation of GLP-1 receptor is known to stimulate cyclic AMP (cAMP) production in cells which indicates primary coupling to the Gas subunit of the G protein heterotrimeric complex.
To optimize functional activity directed toward Gas coupling, a HEK293/CRE-Luc cell line developed by HDB stably expressing the GLP-1 Receptor was used. 200× concentration of compound working solutions were prepared (Agilent Technologies Bravo) with ½ log serial dilution in 384-well Echo LDV plate (Labcyte, Cat #LP-0200). 50 nL/well 200× concentration of compound working solutions were moved to 384-well white low volume plate (Greiner, Cat #784075) using Labcyte ECHO550. 1×10^5 cells/mL HEK293/GLPlR/CRE-LUC (HD Biosciences) cell suspensions prepared with assay buffer [DPBS containing 0.5 mM IBMX (Sigma, Cat #15879) and 0.1% BSA (GENVIEW, Cat #FA016-100g)], 10 μL cell suspensions were added to each well of previous generated assay plate which already contains 50 nL compound at 200× concentration using ThermoFisher Multidrop Combi (1000 cells/well). Seal the plate and incubate at 37° C. with 5% CO2 for 30 min.
After incubation the cAMP assay signal was generated using cAMP dynamic 2 Kit (Cisbio). 5 μL cAMP-d2 working solution was added to each well, followed with 5 μL Anti-cAMP antibody-cryptate working solution added to each well using ThermoFisher Multidrop Combi. Incubate at room temperature for 1 hour protected from light. Read the fluorescence at 665 and 615 nm with Reader PerkinElmer EnVision.
% Activity=100%×(mean RLU of test sample mean RLU of vehicle control)/(mean RLU of MAX control−mean RLU of vehicle control))

N#CC1(Cc2cc(-c3nnc(C(F)(F)F)[nH]3)cnc2CN2CCC(c3ccc(F)c(OCc4ccc(Cl)cc4F)c3)CC2)CC1 and N#CC1(Cc2cc(-c3nnc(C(F)(F)F)[nH]3)cnc2CN2CCN(c3ccc(F)c(OCc4ccc(Cl)cc4F)n3)CC2)CC1 cannot be ordered by EC50: under 1 nM for the first, under 1 nM for the second.

First: C[C@H]1CN(c2cccc(OCc3ccc(Cl)cc3F)n2)CCN1Cc1ncc(-c2nnc(C(F)(F)F)[nH]2)cc1CC1(C#N)CC1
Second: CC1(c2ccc(Cl)cc2F)Oc2cccc(C3=CCN(Cc4ncc(-c5nnc(C(F)(F)F)[nH]5)cc4CC4(C#N)CC4)CC3)c2O1 (stereo not shown) [Example 66, 1-((2-((4-(2-(4-chloro-2-fluorophenyl)-2-methylbenzo[d][1,3]dioxol-4-yl)-3,6-dihydropyridin-1(2H)-yl)methyl)-5-(5-(trifluoromethyl)-4H-1,2,4-triazol-3-yl)pyridin-3-yl)methyl)cyclopropane-1-carbonitrile]
The EC50 of the first is higher: 1 to 100 nM for the first, under 1 nM for the second.

Structures were worked out from names or drawings and are uncertain.
